Construct, isoform or probe ends are uncertain for at least one entry.
System: GST-GhWRKY40a
Experiment: EMSA
Details: reduced by unlabeled same-sequence competitor; Beyotime Chemiluminescent EMSA Kit; pH and temperature not stated; recombinant protein; protein details: N-terminal GST (pGEX-4T-2); label: biotin

**Q.** Does “AATATTCTTTAATGGACTATTGACTTTATTCCGAACTTATCCAAAAGGTT (double strand) [ProGhERF1b EMSA probe]” bind?
**A.** binds

**Q.** Does “GGCTTAGTGACTAAAATGTTACAACACGATAACGTAAGTGACTAAAACGT (double strand) [ProGhABF2 EMSA probe]” bind?
**A.** binds
